Some of the results follow. Shown are side measurements of this screen, not its main read-out; they come without a call. The list favours compounds with an active or inconclusive main result. Potencies come from curve fits of mixed quality, noted in brackets.
Test: qHTS Assay for Lipid Storage Modulators in Drosophila S3 Cells;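 for cell number change: cells counted by Cell Tracker Red CMTPX staining in the red channel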
Details: BODIPY lipid droplet fluorescence, 18-24 h; for cell number change: measured here: cell count max response, cells fed with added oleic acid
Summary of the method: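 Laser-scanning cytometry quantifies lipid droplet accumulation (500–530 nm total intensity; droplet/cell object ratio) in oleic acid-fed (400 uM added) Drosophila S3 cells treated with a concentration series. 20 uM Triacsin C defined 100% inhibition.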

[1] = measured here: lipid fluorescence (Fed channel) AC50, cells fed with added oleic acid
[2] = measured here: cell number channel AC50, cells fed with added oleic acid

SMILES | cell number change | AC50 [1] | AC50 [2]
COc1cc(CNC(C)c2ccccc2)c(Br)cc1OCC(N)=O (stereo not given) | -26.6% | 6.51 µM [falling, single point] | 
O=C(Cn1c(NCCO)nc2ccccc21)c1ccc(F)cc1 | -4.67% | 6.51 µM [rising, single point] | 
C=CCSC1=N/C(=C\C=C\c2ccco2)C(=O)S1 | 1.88% |  | 
COC(=O)c1cc2c(s1)-c1cc(F)ccc1OC2 | 22% | 25.9 µM [rising, single point] | 
Cc1nnc(SCC(=O)NC(C)(C)C)n1NCc1cccc(Br)c1 | -6.32% | 0.0291 µM [rising, full curve] | 
O=C(Cc1ccc(-n2c(=S)[nH]c3ccccc3c2=O)cc1)N1CCC(N2CCCCC2)CC1 | 14.4% | 6.51 µM [falling, single point] | 
COc1ccc(N(CC(=O)NCCc2ccccc2)C(=O)CCC(=O)Nc2nccs2)c(OC)c1 | -9.52% |  | 
CCC1CN(C(=O)N2CCC(C(=O)NCc3cccc(F)c3)CC2)c2ccccc2O1 (stereo not given) | -8.85% | 0.13 µM [rising, full curve, poor fit] | 
Cc1nc(N2CCc3ccccc3C2)[nH]c(=O)c1CCC(C)C | 4.48% | 29.1 µM [rising, single point] | 
Cc1nnc2n(Cc3ccccc3)c(=O)c3c4c(sc3n12)CCCC4 | -41.7% | 32.6 µM [falling, single point] | 36.6 µM [falling, partial curve, poor fit]
Cc1ccc(C)n1CCN1CCN(C(=O)c2ccco2)CC1 | 7.67% |  | 0.92 µM [falling, full curve]
CCn1nnnc1SCC(=O)NNC(=O)C1CCCCC1 | -42.6% | 29.1 µM [falling, single point] | 16.4 µM [falling, single point]
COc1ccc2cc(C(=O)Nc3ccc(Cl)cc3)sc(=O)c2c1OC | -22.4% | 14.6 µM [falling, single point] | 
Cc1nc2ccc(NC(=O)CS(=O)(=O)c3ccc(F)cc3)cc2s1 |  |  | 2.31 µM [rising, single point]
CCCOC(=O)c1sc2nc3c(cc2c1N)C(=O)CCC3 | 14.2% | 6.51 µM [rising, partial curve] | 
O=C(NNS(=O)(=O)c1ccccc1)C1CCCCC1 | 9.21% | 6.31 µM [rising, single point] | 
O=C(COn1nnc2ccc(Cl)cc21)Nc1ccc(F)cc1 | -19.3% | 0.00517 µM [falling, full curve, poor fit] | 
Cc1ccc(C(=O)Nc2ccccc2N2CCCCC2)cc1[N+](=O)[O-] | -2.6% |  | 0.116 µM [rising, full curve, poor fit]
O=C(CNC(=O)c1ccco1)Nc1ccc(S(=O)(=O)N2CCCC2)cc1 | -37.9% |  | 29.1 µM [falling, single point]
NC(=O)N/N=C/c1ccc(N2CCOCC2)s1 | -7.66% | 29.1 µM [rising, single point] | 

Single records, as listed above.
`COC(=O)c1cc2c(s1)-c1cc(F)ccc1OC2` as listed: cell number change: 22%; AC50 [1]: 25.9 µM [rising, single point]
`O=C(Cn1c(NCCO)nc2ccccc21)c1ccc(F)cc1` as listed: cell number change: -4.67%; AC50 [1]: 6.51 µM [rising, single point]
`Cc1nc2ccc(NC(=O)CS(=O)(=O)c3ccc(F)cc3)cc2s1` as listed: AC50 [2]: 2.31 µM [rising, single point]

(continued)

SMILES | cell number change | AC50 [1] | AC50 [2]
CCOc1ccc(Nc2c3c(nc4ncnn24)CC(C)CC3)cc1 (stereo not given) | 2.36% | 0.731 µM [falling, full curve] | 1.46 µM [falling, partial curve]
CC(C)CC(=O)Nc1ccnn1C1CCN(C(=O)c2ccc(F)cc2Cl)CC1 | 2.12% | 0.146 µM [rising, full curve, poor fit] | 
O=C(Cn1c(COc2ccc(Cl)cc2)nc2ccccc21)NCC(F)(F)F | -0.104% | 0.517 µM [rising, single point] | 
CCOc1ccc(/C=N/n2cnnc2)cc1 | 2.9% | 18.4 µM [rising, single point] | 
CCCCNc1c2c3c(cccc3n(C)c1=O)C(=O)c1ccccc1-2 | -95.8% | 18.4 µM [falling, single point] | 16.4 µM [falling, single point]
CSc1ccccc1NC(=O)c1cc(C(C)C)on1 | 41.1% |  | 32.6 µM [rising, single point]
CSc1nsc(SCC(=O)Nc2cccc(C(=O)O)c2)n1 | -4.35% |  | 
CCOc1ccc(S(=O)(=O)Nc2ccc(C(=O)NCCCN3CCCC3=O)cc2)cc1 | 34.9% |  | 8.2 µM [rising, partial curve, poor fit]
COc1ccc(N2CC(C)Cn3c2nc2c3c(=O)[nH]c(=O)n2C)cc1 (stereo not given) | -19.8% |  | 
CCOC(=O)C1CCN(C(=O)CN(c2cccc(C(F)(F)F)c2)S(C)(=O)=O)CC1 | -1.76% |  | 
O=C(N/N=C/c1cn(-c2ccccc2)nc1-c1cccnc1)c1ccc(F)cc1 | 15.6% | 0.00517 µM [rising, full curve] | 
CCC(C)NC(=O)CSc1nnc(-c2ccoc2C)n1CC1CCCO1 (stereo not given) | 7.81% | 0.92 µM [rising, full curve, poor fit] | 
N#Cc1ccc(NC(=O)Nc2ccc(Cl)cc2)cc1 | -126% | 16.4 µM [falling, partial curve] | 20.6 µM [falling, partial curve]
Cc1cc(C)cc(N(CC(=O)NCc2ccco2)C(=O)CCC(=O)Nc2ccccn2)c1 | 32.4% |  | 11.6 µM [rising, partial curve, poor fit]
Cc1cc(C)n2cc(CSc3ccc(Cl)cc3)nc2n1 | 0.32% | 0.58 µM [falling, single point] | 0.116 µM [falling, full curve, poor fit]
COc1ccc(N=c2oc3cc(O)ccc3cc2C(=O)NCC2CCCO2)cc1 (stereo not given) | 1.27% | 0.146 µM [falling, full curve, poor fit] | 
O=C(OC1CCOC1=O)c1ccc(Cl)c(S(=O)(=O)N2CCCCC2)c1 (stereo not given) |  | 6.51 µM [falling, single point] | 
O=C(Nc1ccc(F)cc1)c1ccc(-n2ccnc2)nc1 | 36.7% | 18.4 µM [rising, single point] | 32.6 µM [rising, single point]
COc1ccc(-c2csc(NC(=O)c3ccoc3C)n2)cc1 | 5.08% |  | 
CCc1sc(NS(C)(=O)=O)nc1-c1ccccc1 | 49.4% | 14.6 µM [rising, partial curve] | 11.6 µM [rising, partial curve, poor fit]
